{"sequences": {"note": "By UniProt entry, the sequences of proteins in these tests, tags left out.", "UniProt P14618": "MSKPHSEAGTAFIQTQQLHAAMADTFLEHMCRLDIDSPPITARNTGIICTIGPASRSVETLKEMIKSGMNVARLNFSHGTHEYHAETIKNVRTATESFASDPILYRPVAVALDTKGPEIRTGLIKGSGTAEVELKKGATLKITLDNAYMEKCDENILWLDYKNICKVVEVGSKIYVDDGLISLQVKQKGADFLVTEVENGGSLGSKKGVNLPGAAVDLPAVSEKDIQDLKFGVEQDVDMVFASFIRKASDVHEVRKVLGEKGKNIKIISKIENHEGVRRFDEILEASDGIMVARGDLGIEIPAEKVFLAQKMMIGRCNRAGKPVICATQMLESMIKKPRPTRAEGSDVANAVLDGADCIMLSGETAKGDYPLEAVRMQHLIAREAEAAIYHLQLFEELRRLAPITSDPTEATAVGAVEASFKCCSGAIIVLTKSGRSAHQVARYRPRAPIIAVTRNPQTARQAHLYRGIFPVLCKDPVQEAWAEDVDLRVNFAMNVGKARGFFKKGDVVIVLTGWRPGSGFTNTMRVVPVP"}, "source": "paper PMC9256704", "key": {"[1]": {"biological_target": "GST-PKM2 (UniProt P14618)", "test": "pull-down; GST-PKM2 induced by IPTG; anti-GST antibodies precipitated Flag-TRIB2 (Fig. S1G); source of Flag-TRIB2 not told"}, "[2]": {"biological_target": "PKM2 (M2 isoform of pyruvate kinase), endogenous (human (endogenous in A549 and in patients' lung cancer tissues)) (UniProt P14618)", "test": "co-IP; lysates of A549 cells (endogenous proteins, or GFP-TRIB2-overexpressed cells) incubated with primary antibodies or control IgG overnight at 4 °C, protein G/A beads 2 h at 4 °C; immunoblotting"}, "[3]": {"biological_target": "GST-PKM2 (UniProt P14618)", "test": "pull-down; GST-fusion protein from E. coli bound to GST beads, incubated with cell lysates (A549, H1299 or other cells) for 4 h at 4 °C; adsorbed proteins by immunoblotting; the results call it Co-IP with anti-GST antibodies; only the target purified"}}, "note": "Results are given in words; binding and its absence hold for the method and conditions named. Binding seen in cells or lysates may run through a third protein. Some entries that bind do so weakly or less than the wild type. For some of these results: Tags and fused reporters may be left off the sequences shown."}
{"binder": "Flag-TRIB2 (protein, UniProt Q92519 1-343) MNIHRSTPITIARYGRSRNKTQDFEELSSIRSAEPSQSFSPNLGSPSPPETPNLSHCVSCIGKYLLLEPLEGDHVFRAVHLHSGEELVCKVFDISCYQESLAPCFCLSAHSNINQITEIILGETKAYVFFERSYGDMHSFVRTCKKLREEEAARLFYQIASAVAHCHDGGLVLRDLKLRKFIFKDEERTRVKLESLEDAYILRGDDDSLSDKHGCPAYVSPEILNTSGSYSGKAADVWSLGVMLYTMLVGRYPFHDIEPSSLFSKIRRGQFNIPETLSPKAKCLIRSILRREPSERLTSQEILDHPWFSTDFSVSNSAYGAKEVSDQLVPDVNMEENLDPFFN", "values": [{"measurement": "binding", "setting": "[1]", "value": "binds"}]}
{"binder": "TRIB2, endogenous (protein, UniProt Q92519 1-343) MNIHRSTPITIARYGRSRNKTQDFEELSSIRSAEPSQSFSPNLGSPSPPETPNLSHCVSCIGKYLLLEPLEGDHVFRAVHLHSGEELVCKVFDISCYQESLAPCFCLSAHSNINQITEIILGETKAYVFFERSYGDMHSFVRTCKKLREEEAARLFYQIASAVAHCHDGGLVLRDLKLRKFIFKDEERTRVKLESLEDAYILRGDDDSLSDKHGCPAYVSPEILNTSGSYSGKAADVWSLGVMLYTMLVGRYPFHDIEPSSLFSKIRRGQFNIPETLSPKAKCLIRSILRREPSERLTSQEILDHPWFSTDFSVSNSAYGAKEVSDQLVPDVNMEENLDPFFN", "values": [{"measurement": "binding", "setting": "[2]", "value": "binds"}, {"measurement": "binding", "setting": "[3]", "value": "binds"}]}
{"binder": "GFP-TRIB2 (protein, UniProt Q92519 1-343) MNIHRSTPITIARYGRSRNKTQDFEELSSIRSAEPSQSFSPNLGSPSPPETPNLSHCVSCIGKYLLLEPLEGDHVFRAVHLHSGEELVCKVFDISCYQESLAPCFCLSAHSNINQITEIILGETKAYVFFERSYGDMHSFVRTCKKLREEEAARLFYQIASAVAHCHDGGLVLRDLKLRKFIFKDEERTRVKLESLEDAYILRGDDDSLSDKHGCPAYVSPEILNTSGSYSGKAADVWSLGVMLYTMLVGRYPFHDIEPSSLFSKIRRGQFNIPETLSPKAKCLIRSILRREPSERLTSQEILDHPWFSTDFSVSNSAYGAKEVSDQLVPDVNMEENLDPFFN", "values": [{"measurement": "binding", "setting": "[2]", "value": "binds"}]}
